# Data taken from US20220282268A1.
# Sequences of proteins named here, by UniProt entry; tags and fusion partners are left off. A change or cut given only in a name is not applied to a line headed by its entry.
# UniProt P00873: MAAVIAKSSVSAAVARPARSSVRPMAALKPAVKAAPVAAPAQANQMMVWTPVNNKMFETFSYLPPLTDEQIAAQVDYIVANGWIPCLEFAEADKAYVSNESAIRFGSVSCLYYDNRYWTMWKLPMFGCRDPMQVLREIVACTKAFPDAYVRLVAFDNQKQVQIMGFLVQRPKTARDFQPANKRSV
# Numbering of substitutions follows the chain as printed. These are yes or no findings as the source states them, for the method shown. Some entries that bind do so weakly or less than the wild type.
# B1: EPYC1 four repeat regions and C-terminus (4reps+C-ter/mEPYC1) (protein)
# chain: VSPTRSVLPANWRQELESLRNGNGSSSAASSAPAPARSSSASWRDAAPASSAPARSSSASKKAVTPSRSALPSNWKQELESLRSSSPAPASSAPAPARSSSASWRDAAPASSAPARSSSSKKAVTPSRSALPSNWKQELESLRSSSPAPASSAPAPARSSSASWRDAAPASSAPARSSSASKKAVTPSRSALPSNWKQELESLRSNSPAPASSAPAPARSSSASWRDAPASSSSSSADKAGTNPWTGKSKPEIKRTALPADWRKGL
# B2: EPYC1-α1: EPYC1 with the α-helix of the first repeat region mutated to alanines (protein)
# chain: MATISSMRVGAASRVVVSGRVKTVKVAARGSWRESSTATVQASRASSATNRVSPTRSVLPANWAAAAAAARNGNGSSSAASSAPAPARSSSASWRDAAPASSAPARSSSASKKAVTPSRSALPSNWKQELESLRSSSPAPASSAPAPARSSSASWRDAAPASSAPARSSSSKKAVTPSRSALPSNWKQELESLRSSSPAPASSAPAPARSSSASWRDAAPASSAPARSSSASKKAVTPSRSALPSNWKQELESLRSNSPAPASSAPAPARSSSASWRDAPASSSSSSADKAGTNPWTGKSKPEIKRTALPADWRKGL
# B3: EPYC1-α4: EPYC1 with the α-helix of the fourth repeat region mutated to alanines (protein)
# chain: MATISSMRVGAASRVVVSGRVKTVKVAARGSWRESSTATVQASRASSATNRVSPTRSVLPANWRQELESLRNGNGSSSAASSAPAPARSSSASWRDAAPASSAPARSSSASKKAVTPSRSALPSNWKQELESLRSSSPAPASSAPAPARSSSASWRDAAPASSAPARSSSSKKAVTPSRSALPSNWKQELESLRSSSPAPASSAPAPARSSSASWRDAAPASSAPARSSSASKKAVTPSRSALPSNWAAAAAAARSNSPAPASSAPAPARSSSASWRDAPASSSSSSADKAGTNPWTGKSKPEIKRTALPADWRKGL
# B4: EPYC1-α1,2: EPYC1 with the α-helices of the first and second repeat regions mutated to alanines (protein)
# chain: B2 chain with K127A, Q128A, E129A, L130A, E131A, S132A, L133A
# B5: EPYC1-α1,2,3: EPYC1 with the α-helices of the first, second and third repeat regions mutated to alanines (protein)
# chain: MATISSMRVGAASRVVVSGRVKTVKVAARGSWRESSTATVQASRASSATNRVSPTRSVLPANWAAAAAAARNGNGSSSAASSAPAPARSSSASWRDAAPASSAPARSSSASKKAVTPSRSALPSNWAAAAAAARSSSPAPASSAPAPARSSSASWRDAAPASSAPARSSSSKKAVTPSRSALPSNWAAAAAAARSSSPAPASSAPAPARSSSASWRDAAPASSAPARSSSASKKAVTPSRSALPSNWKQELESLRSNSPAPASSAPAPARSSSASWRDAPASSSSSSADKAGTNPWTGKSKPEIKRTALPADWRKGL
# B6: EPYC1-α3,4: EPYC1 with the α-helices of the third and fourth repeat regions mutated to alanines (protein)
# chain: B3 chain with K187A, Q188A, E189A, L190A, E191A, S192A, L193A
# Columns and labels:
# [1] = molecular target: C. reinhardtii Rubisco small subunit 1 (S1Cr), mature (Chlamydomonas reinhardtii) (UniProt P00873); assay: yeast two-hybrid (FIG. 4J)
# [2] = molecular target: C. reinhardtii Rubisco small subunit 1 (S1Cr), mature (Chlamydomonas reinhardtii) (UniProt P00873); assay: yeast two-hybrid (FIG. 4K)
Binder,binding [1],binding [2]
B1,binds,
B2,,binds
B3,,binds
B4,,binds
B5,,binds
B6,,binds
